Source: US20240309360A1, “TRANS-ACTIVATORS AND METHODS AND USE THEREOF” (THE GOVERNING COUNCIL OF THE UNIVERSITY OF TORONTO, priority 2021, published 2024)
No constants are given. Whether binding was seen depends on the method and setting. In cells and extracts the contact can be indirect. Some results given as binding are weak or reduced against the parent protein; the word gives no strength.

Chains of the proteins cited; added tags and fusions are not shown. Residues count along the entry.
UniProt Q92793, residues 2-2442: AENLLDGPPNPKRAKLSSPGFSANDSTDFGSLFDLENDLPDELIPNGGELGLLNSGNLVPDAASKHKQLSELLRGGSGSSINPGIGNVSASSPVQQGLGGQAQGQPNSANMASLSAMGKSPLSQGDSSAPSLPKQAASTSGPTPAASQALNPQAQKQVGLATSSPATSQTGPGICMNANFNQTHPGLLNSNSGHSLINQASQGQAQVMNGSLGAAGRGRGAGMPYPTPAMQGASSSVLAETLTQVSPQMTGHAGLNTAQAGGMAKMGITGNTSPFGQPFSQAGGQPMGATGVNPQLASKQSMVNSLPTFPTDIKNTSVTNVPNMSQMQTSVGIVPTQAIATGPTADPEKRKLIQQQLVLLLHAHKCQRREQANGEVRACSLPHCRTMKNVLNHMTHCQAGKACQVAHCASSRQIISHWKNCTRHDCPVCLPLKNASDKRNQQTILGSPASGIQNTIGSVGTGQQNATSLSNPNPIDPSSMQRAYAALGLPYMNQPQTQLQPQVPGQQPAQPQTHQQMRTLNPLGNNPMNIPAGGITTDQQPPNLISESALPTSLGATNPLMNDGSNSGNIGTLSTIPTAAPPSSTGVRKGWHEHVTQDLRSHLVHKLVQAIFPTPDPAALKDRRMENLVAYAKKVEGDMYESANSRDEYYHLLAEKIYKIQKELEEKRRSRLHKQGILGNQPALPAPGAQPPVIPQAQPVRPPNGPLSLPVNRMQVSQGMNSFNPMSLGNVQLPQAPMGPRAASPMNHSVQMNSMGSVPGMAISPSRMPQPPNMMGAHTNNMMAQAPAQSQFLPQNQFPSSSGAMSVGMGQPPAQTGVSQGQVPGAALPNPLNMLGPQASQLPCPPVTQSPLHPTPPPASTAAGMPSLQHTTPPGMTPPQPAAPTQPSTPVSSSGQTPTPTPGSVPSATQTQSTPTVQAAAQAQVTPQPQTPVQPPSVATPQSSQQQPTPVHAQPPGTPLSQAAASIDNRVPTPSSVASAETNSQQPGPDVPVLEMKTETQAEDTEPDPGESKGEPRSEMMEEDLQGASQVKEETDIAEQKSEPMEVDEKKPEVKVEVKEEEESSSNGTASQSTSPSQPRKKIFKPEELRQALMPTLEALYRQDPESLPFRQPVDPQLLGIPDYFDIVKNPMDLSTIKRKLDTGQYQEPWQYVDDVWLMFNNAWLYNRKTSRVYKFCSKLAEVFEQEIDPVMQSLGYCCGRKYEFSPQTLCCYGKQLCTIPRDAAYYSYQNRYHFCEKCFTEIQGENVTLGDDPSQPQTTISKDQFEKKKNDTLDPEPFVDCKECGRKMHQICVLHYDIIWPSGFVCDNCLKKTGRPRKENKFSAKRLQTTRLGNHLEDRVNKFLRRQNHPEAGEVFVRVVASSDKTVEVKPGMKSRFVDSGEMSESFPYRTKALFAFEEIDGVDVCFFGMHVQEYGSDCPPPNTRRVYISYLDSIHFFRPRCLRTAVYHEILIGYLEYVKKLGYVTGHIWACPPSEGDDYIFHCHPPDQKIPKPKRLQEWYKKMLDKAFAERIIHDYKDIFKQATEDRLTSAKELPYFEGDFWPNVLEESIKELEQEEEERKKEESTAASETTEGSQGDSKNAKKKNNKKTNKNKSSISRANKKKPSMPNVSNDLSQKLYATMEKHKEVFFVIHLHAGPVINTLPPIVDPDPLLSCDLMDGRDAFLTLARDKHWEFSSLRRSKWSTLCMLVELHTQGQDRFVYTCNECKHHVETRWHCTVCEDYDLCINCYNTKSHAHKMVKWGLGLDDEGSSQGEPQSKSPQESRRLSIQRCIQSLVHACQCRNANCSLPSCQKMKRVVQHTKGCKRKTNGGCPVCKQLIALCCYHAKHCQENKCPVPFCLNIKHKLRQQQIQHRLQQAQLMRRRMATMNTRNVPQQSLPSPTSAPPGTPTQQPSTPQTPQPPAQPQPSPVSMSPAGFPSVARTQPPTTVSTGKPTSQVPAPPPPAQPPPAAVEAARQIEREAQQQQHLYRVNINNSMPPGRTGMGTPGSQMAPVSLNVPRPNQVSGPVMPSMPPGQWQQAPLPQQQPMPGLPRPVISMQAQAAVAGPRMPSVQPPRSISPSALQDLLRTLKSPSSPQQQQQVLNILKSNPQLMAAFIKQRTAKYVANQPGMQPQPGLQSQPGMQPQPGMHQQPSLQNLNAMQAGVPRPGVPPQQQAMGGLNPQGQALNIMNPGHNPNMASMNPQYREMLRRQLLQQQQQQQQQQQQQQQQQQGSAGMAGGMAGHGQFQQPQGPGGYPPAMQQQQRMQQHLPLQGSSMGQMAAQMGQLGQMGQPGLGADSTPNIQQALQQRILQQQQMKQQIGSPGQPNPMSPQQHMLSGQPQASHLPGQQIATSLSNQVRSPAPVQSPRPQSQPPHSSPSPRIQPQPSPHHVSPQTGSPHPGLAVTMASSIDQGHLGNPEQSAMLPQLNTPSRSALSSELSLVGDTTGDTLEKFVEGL
UniProt Q09472, residues 2-2414: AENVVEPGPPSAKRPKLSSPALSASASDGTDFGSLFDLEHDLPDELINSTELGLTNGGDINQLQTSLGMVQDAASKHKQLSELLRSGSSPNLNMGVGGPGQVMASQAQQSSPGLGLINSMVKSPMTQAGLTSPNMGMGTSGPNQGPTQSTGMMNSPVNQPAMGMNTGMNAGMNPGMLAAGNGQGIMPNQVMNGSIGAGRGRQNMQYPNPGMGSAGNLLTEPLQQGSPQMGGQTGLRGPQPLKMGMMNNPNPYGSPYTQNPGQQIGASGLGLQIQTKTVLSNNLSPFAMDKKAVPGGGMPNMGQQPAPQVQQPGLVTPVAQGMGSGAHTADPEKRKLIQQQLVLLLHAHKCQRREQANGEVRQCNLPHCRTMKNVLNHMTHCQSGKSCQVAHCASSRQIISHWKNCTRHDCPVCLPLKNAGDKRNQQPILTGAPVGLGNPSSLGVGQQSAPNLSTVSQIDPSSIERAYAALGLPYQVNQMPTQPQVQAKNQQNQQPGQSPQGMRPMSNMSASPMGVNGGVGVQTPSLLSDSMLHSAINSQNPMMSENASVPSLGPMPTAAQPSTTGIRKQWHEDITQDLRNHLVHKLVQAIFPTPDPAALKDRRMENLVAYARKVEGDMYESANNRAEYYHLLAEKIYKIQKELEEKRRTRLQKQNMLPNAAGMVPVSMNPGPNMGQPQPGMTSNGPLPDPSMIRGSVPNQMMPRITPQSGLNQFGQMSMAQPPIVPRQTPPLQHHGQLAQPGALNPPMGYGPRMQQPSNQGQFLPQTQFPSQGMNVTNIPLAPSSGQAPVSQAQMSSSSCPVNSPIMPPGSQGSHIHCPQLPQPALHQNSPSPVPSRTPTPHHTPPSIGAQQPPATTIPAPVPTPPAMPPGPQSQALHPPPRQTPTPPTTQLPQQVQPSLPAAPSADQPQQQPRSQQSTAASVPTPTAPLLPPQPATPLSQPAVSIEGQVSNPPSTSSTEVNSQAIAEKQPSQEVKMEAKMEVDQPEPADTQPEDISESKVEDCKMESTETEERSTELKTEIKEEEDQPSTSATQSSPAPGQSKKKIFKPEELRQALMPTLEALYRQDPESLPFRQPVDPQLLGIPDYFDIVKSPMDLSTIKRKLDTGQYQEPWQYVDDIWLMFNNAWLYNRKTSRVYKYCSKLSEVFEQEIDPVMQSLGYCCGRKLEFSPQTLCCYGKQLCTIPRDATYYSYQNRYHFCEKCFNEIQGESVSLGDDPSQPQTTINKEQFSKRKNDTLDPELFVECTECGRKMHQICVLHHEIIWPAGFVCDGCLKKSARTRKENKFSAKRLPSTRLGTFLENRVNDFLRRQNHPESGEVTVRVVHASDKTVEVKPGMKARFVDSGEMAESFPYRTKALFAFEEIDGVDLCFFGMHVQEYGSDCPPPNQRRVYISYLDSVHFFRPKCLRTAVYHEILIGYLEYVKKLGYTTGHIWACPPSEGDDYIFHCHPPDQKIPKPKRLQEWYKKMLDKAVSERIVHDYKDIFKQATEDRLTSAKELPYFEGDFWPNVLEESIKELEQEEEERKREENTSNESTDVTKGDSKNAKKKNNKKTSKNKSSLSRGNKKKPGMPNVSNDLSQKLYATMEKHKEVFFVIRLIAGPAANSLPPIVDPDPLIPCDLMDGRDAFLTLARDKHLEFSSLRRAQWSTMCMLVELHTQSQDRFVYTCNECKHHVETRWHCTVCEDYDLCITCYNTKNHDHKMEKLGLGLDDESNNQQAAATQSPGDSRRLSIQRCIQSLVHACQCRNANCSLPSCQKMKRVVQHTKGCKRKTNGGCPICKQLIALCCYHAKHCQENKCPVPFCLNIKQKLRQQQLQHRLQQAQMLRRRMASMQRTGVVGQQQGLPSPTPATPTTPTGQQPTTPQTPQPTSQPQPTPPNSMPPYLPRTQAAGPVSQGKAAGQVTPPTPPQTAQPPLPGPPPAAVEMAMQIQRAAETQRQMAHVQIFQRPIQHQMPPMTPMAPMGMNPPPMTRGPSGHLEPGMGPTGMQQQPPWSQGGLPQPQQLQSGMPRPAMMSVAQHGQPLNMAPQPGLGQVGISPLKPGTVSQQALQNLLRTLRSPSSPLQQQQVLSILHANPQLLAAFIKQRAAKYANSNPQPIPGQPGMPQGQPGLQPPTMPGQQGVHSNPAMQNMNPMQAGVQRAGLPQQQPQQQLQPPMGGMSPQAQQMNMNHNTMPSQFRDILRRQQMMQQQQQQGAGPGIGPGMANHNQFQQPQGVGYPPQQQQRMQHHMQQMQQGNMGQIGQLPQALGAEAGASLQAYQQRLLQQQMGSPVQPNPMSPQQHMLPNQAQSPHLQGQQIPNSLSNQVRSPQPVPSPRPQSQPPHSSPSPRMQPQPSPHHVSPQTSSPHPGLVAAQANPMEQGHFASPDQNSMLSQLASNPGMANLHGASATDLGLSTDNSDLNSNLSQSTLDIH
UniProt Q6ZUJ4: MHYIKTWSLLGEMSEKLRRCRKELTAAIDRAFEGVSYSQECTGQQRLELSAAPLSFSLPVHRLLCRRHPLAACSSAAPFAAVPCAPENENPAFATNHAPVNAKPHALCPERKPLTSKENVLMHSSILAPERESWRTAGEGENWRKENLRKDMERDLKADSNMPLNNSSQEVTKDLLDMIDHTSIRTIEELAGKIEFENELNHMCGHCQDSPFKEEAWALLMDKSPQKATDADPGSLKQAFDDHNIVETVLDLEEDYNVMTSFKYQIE

Tests used:
CBP (human) = CBP (human) (UniProt Q92793); experiment: AP-MS and/or BioID2 in HEK293 cells (method not told for the pair)
p300 (human) = p300 (human) (UniProt Q09472); experiment: as above

For “C3orf62 fused to BioID2 (BirA from Aquifex aeolicus) and FLAG (from UniProt Q6ZUJ4 1-267)”, the binding (CBP (human)) was “binds” and the binding (p300 (human)) was “binds”.
